This is one part of the list.

By UniProt entry, the sequences of proteins in these tests, tags left out.
UniProt Q0JBA9, entry or part of it: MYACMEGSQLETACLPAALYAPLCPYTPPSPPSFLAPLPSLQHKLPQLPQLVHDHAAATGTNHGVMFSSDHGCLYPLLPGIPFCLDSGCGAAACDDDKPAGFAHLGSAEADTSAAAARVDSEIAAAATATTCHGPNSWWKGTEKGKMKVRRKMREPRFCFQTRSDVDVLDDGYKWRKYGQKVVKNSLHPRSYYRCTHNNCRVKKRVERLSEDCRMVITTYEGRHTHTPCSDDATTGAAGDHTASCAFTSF

The target in the test is OsWRKY34 (Oryza sativa, UniProt Q0JBA9 1-250). The test is described as follows: protein-binding microarray (RPBM); PBS, 2% BSA, 51.3 ng/ul salmon testes DNA, 50 uM zinc acetate, 200 nM TF, 25 C, 1 h; high values mean tight binding. To be noted: protein: recombinant; tags: N-terminal polyhistidine and DsRed monomer fusion (pET32a); label: CyDye5-dUTP incorporated in the synthesized complementary strand; 3' TTTTT single-stranded linker to array surface; dsDNA, one strand shown. The gist of the method: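 Using Ni–NTA, transcription factors fused N-terminally to polyhistidine and DsRed were purified after expression in E. coli BL21-CodonPlus. These were incubated at 200 nM with a blocked, double-stranded custom Agilent array for 1 h at 25 °C in a buffer containing 50 µM zinc acetate, and the array was washed. The binding signal is per-feature fluorescence intensity (arbitrary units) on an Axon 4000B scanner.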
As for “ACTCCAGTTTTTCCAAAGCTTCGTCACCTGCCAACTCCTGCGGAGTCACCTAGTGCAG”, the binding signal was 11700 fluorescence intensity (a.u.).

Consider “GTATACTACTACTTCTATATTTTAATATATAACACCGTTGCGGAGTCACCTAGTGCAG”, for which the binding signal is 8320 fluorescence intensity (a.u.).

As to “CGCCACCCGCATCCGTGCTCGCCGCTCCGCCGCCGCGCTCCGGAGTCACCTAGTGCAG”, the binding signal is 11900 fluorescence intensity (a.u.).

As for “GGTTTATGCAACTCCACAACTCCAGTCCAAACCCAACTCCCGGAGTCACCTAGTGCAG”, the binding signal is 8100 fluorescence intensity (a.u.).

“CCCACATGTCAGTCTGCCGCTTTGTCCTACCAATCCAAGCCGGAGTCACCTAGTGCAG”: the binding signal was 9750 fluorescence intensity (a.u.).

Turning to “ATTTTTGTGGGTTTGTTTGAAAGATATGTGGGATAATTGACGGAGTCACCTAGTGCAG”, the binding signal is 9670 fluorescence intensity (a.u.).

For “ACTAGCAATTTATTCACCACAATTTTATGTCAGTCACAACCGGAGTCACCTAGTGCAG”, the binding signal is 10000 fluorescence intensity (a.u.).

For the sequence “TCCTCTCGCCATCTCACTCGACTCGCCCAAGAACTCGGAGCGGAGTCACCTAGTGCAG”, the binding signal is 9150 fluorescence intensity (a.u.).

With “TCCATTATACCATGTCTATGGGCACCAATTTCAGTGCTGACGGAGTCACCTAGTGCAG”, the binding signal was 8480 fluorescence intensity (a.u.).

With “ACTTATAAACGGATCCGCGCACACCCTATCCATATGAACACGGAGTCACCTAGTGCAG”, the binding signal was 11300 fluorescence intensity (a.u.).

As for “TGTTTCTCGATCGGTACATCGCCAACTTCCGCTCGAGTTTCGGAGTCACCTAGTGCAG”, the binding signal is 9020 fluorescence intensity (a.u.).

As to “ATACAAATTTGTTTGTTTGGTTTGGTTGCACGAATTAATTCGGAGTCACCTAGTGCAG”, the binding signal is 9330 fluorescence intensity (a.u.).

With “ATAAGTAGCCAGACCGTGTCTAGTGCTCTCTCTCTTTCTTCGGAGTCACCTAGTGCAG”, the binding signal is 8650 fluorescence intensity (a.u.).

Take “GAGCTTCCTATCGCGCCGCCGCGTGCGTACGTGTTTGATCCGGAGTCACCTAGTGCAG”: the binding signal is 11000 fluorescence intensity (a.u.).

“CATTTCCCAGTCCAAGCCTGGCTTTCCACCCGTTATTAGTCGGAGTCACCTAGTGCAG”: the binding signal was 8060 fluorescence intensity (a.u.).

Take “GGCCAAGTTTCCTCATCACCCCAGTGGACCCCACGCGTCACGGAGTCACCTAGTGCAG”: the binding signal was 11800 fluorescence intensity (a.u.).

Consider “GGATGTAGCTTGATTGCTCGCCGTACGTCGTCGACATGTTCGGAGTCACCTAGTGCAG”, for which the binding signal is 8810 fluorescence intensity (a.u.).

Turning to “GCATTCGCTCACTCACACTCACACTCACTCTCTCTCTCTCCGGAGTCACCTAGTGCAG”, the binding signal was 10200 fluorescence intensity (a.u.).

As to “AGAGGAAGTGGGATAAGATGGGGTGGGCATGTAAGAATCTCGGAGTCACCTAGTGCAG”, the binding signal is 15400 fluorescence intensity (a.u.).

Consider “CCAGCTTCTTCCGGCGGCTGGTCATCAACTTCTGCTACGACGGAGTCACCTAGTGCAG”, for which the binding signal is 8900 fluorescence intensity (a.u.).

“CTTTTCTTTCCTCTCTTCTCACCGGTTTCATTTGTGCCAACGGAGTCACCTAGTGCAG”: the binding signal was 10400 fluorescence intensity (a.u.).

Consider “CCAATCTTTTCTTTCCCTTTTTTATTTTTAATTTTTTTGCCGGAGTCACCTAGTGCAG”, for which the binding signal was 8530 fluorescence intensity (a.u.).

Regarding “TCGCCGCTTCCTCTCGCACGCGCGCCGCCATGCCCTCTTCCGGAGTCACCTAGTGCAG”, the binding signal was 9260 fluorescence intensity (a.u.).

Take “AAACTCTCAATTTTTTTTTCCAAACTACCAACTTTCTCTACGGAGTCACCTAGTGCAG”: the binding signal is 9230 fluorescence intensity (a.u.).

In the case of “ATCGCATCCACCAGCGCCCAAAAACCCTACACCTGCAAACCGGAGTCACCTAGTGCAG”, the binding signal was 8980 fluorescence intensity (a.u.).

On to “TTACTTGTCTCCGCCGCCGCCGCCGCCGACGCCGCCGTCTCGGAGTCACCTAGTGCAG”, for which the binding signal was 8910 fluorescence intensity (a.u.).

“CCTTCCCGTGCCGCTGCTCCCCACCGCCACTGGGAACAACCGGAGTCACCTAGTGCAG”: the binding signal is 8160 fluorescence intensity (a.u.).

For the sequence “TTTGAGTTTATCTCCTACTCTGGTTGTGCCATTGTCATTACGGAGTCACCTAGTGCAG”, the binding signal was 10900 fluorescence intensity (a.u.).

Consider “CCACGACTGACCTCTTGACCTCTGAGATTTATTGATTAGACGGAGTCACCTAGTGCAG”, for which the binding signal is 8690 fluorescence intensity (a.u.).

As to “TTTCCTCCGTCCCTGAGCTGTACTCGCGCCAATCAATCATCGGAGTCACCTAGTGCAG”, the binding signal is 9570 fluorescence intensity (a.u.).

On to “TGTCGTACTACGTAGATCCTCGTACCAGCGTACCCCAATACGGAGTCACCTAGTGCAG”, for which the binding signal was 8220 fluorescence intensity (a.u.).

Take “TTCTTCTTCAACTCCGGTTGCCGGCCCTCTTCTTCTTCAACGGAGTCACCTAGTGCAG”: the binding signal is 9940 fluorescence intensity (a.u.).

On to “TGGTGACTGGGTAGGTGGTGGTGGTGGTGCGCGGCGGCGGCGGAGTCACCTAGTGCAG”, for which the binding signal was 8620 fluorescence intensity (a.u.).

On to “TCGCTATCAACAAACAGTGCACGCTTCGGTTCTTGTCTGTCGGAGTCACCTAGTGCAG”, for which the binding signal is 12500 fluorescence intensity (a.u.).

As to “CACCCAGCTGCAACATGGATCACCAAACATATCGATCCTTCGGAGTCACCTAGTGCAG”, the binding signal was 8220 fluorescence intensity (a.u.).

With “ACTATGTACACCACCTACACACCACAACAACCCGCACCACCGGAGTCACCTAGTGCAG”, the binding signal is 8830 fluorescence intensity (a.u.).

Turning to “CTTCCTCATCTCTCTCTCACTTCTCTCCTCTCTGTAGGGCCGGAGTCACCTAGTGCAG”, the binding signal is 8660 fluorescence intensity (a.u.).

As to “TGTTGATGAGCTAAAGGTTGCAAATTGGAATGGTTTGGGGCGGAGTCACCTAGTGCAG”, the binding signal was 8390 fluorescence intensity (a.u.).

“CTGCGTTAGTTGTTGCGTCCCGCCTTGTCCGTCCTTGTCACGGAGTCACCTAGTGCAG”: the binding signal was 10200 fluorescence intensity (a.u.).

Turning to “TATCCCTTGGCTGTCCCATCGTCCATTTCAAGTTCTGCATCGGAGTCACCTAGTGCAG”, the binding signal was 11600 fluorescence intensity (a.u.).

Take “GATCAGAGATGAGGGCGGGCGGGTTGACTGGGAGAGTAGACGGAGTCACCTAGTGCAG”: the binding signal is 20500 fluorescence intensity (a.u.).

Take “CCTCGTCCTCGTCTCGTCTCGTCTCCTCTCCGCCTCTTTCCGGAGTCACCTAGTGCAG”: the binding signal is 10000 fluorescence intensity (a.u.).
